# No constants are given. Whether binding was seen depends on the method and setting. Some entries that bind do so weakly or less than the wild type.
# The chains behind the UniProt entries cited, without tags or fusion partners. Where a name states a change or a piece, a line headed by the entry shows the natural chain unless it says otherwise.
# UniProt B0L3A2: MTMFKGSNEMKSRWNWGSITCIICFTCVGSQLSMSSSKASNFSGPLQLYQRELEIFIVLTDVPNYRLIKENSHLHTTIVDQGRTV
# Columns and labels:
# [1] = molecular target: human DEspR (dual endothelin-1/VEGF signal peptide receptor) (human) (UniProt B0L3A2); experiment: FACS displacement on Panc1 CSCs
# [2] = molecular target: human DEspR (dual endothelin-1/VEGF signal peptide receptor) (human) (UniProt B0L3A2); experiment: internalization imaging on Panc1 cells
# [3] = molecular target: human DEspR (dual endothelin-1/VEGF signal peptide receptor) (human) (UniProt B0L3A2); experiment: FACS displacement of AF568-labelled 7C5B2 on Panc1 CSCs
# [4] = molecular target: human DEspR (dual endothelin-1/VEGF signal peptide receptor) (human) (UniProt B0L3A2); experiment: confocal time series, AF568-labelled mAb on Panc1 tumor cells
# [5] = molecular target: human DEspR (dual endothelin-1/VEGF signal peptide receptor) (human) (UniProt B0L3A2); experiment: FACS of Panc1 CSCs with 10 µg/ml AF568-7C5B2, 4 °C, 20 min
# [6] = molecular target: human DEspR (dual endothelin-1/VEGF signal peptide receptor) (human) (UniProt B0L3A2); experiment: live-cell confocal imaging of Panc1 tumor cells, internalization
# [7] = molecular target: human DEspR (dual endothelin-1/VEGF signal peptide receptor) (human) (UniProt B0L3A2); experiment: live-cell confocal imaging of Panc1 tumor cells, uptake of the AF568-labelled 7C5 murine mAb
# [8] = molecular target: human DEspR (dual endothelin-1/VEGF signal peptide receptor) (human) (UniProt B0L3A2); experiment: FACS displacement of AF568-7C5B2 (10 µg/ml) from Panc1 CSCs; peptide at 100x molar excess
binding [1],binding [2],binding [3],binding [4],binding [5],binding [6],binding [7],binding [8],Binder
binds,binds,binds,binds,binds,binds,binds,,"7C5B2 mouse anti-human DEspR monoclonal antibody (antibody, V domains shown) VH: QVQLKESGPGLVAPSQSLSITCTVSGFSLKSYAVSWVRQPPGKGLEWLGVIWGDGSTDYHSALISRLSISKDNSKSQFFLRLNSLQTDDTATYYCARGTGTGFAYWGQGTLVTVSA VL: DVVMTQTPLSLPVSLGDQASISCRSSQSLVHSNGNTYLHWYLQKPGQSPKLLIYKVSNRFSGVPDRFSGSGSGTDFTLKISRVEAEDLGIYFCSQCTHIPWTFGGGTNLEIK"
,,,,,,,binds,MNFLLSWVHWSLALLLYLHHAKWSQA (ligand) [VEGFsp26 (VEGF signal peptide 26)]
,,,,,,,binds,MNFLLSWVHWSLALLLY (ligand) [VEGFsp17 (VEGF signal peptide 17)]

# From US20190153106A1
